For at least one compound, name, drawing or mass did not settle the structure.
Test system: SD rats
Assay: Oral glucose tolerance test (OGTT) in rats; single injection; 1 mg/kg
Assay type: in vivo
Settings: after 24 hrs
Description: Animals were divided into three groups—a normal control group, a test group and a third semaglutide group, with 4 animals in each group. The animals were fasted for 12 hours before initiation of OGTT. To the test group animals, the Compound 1 was injected subcutaneously at 1 mg/kg dose. To the semaglutide group, a dose of 1 mg/kg was injected subcutaneously. After 22 hrs, 166 hrs and 334 hrs of subcutaneous injection of test drug or semaglutide, blood glucose was measured with blood glucose meter (time 0 measurements). All the animals were then given 2 g/kg of glucose solution orally. Blood glucose was measured at 20, 40, 60, 90 and 120 minutes following glucose challenge. Body weight and food intake was recorded. Blood glucose data was analyzed using Two way ANOVA followed by Bonferroni posttests using PRISM (Graph Pad version 5.03). Data of Blood glucose AUC0-120 min, was analyzed using t test.
Animals were divided into three groups—a normal control group, a test group and a third semaglutide group, with 4 animals in each group. […] After 22 hrs, 166 hrs and 334 hrs of subcutaneous injection of test compound or semaglutide, blood glucose was measured with blood glucose meter (time 0 measurements). […] Blood glucose was measured at 20, 40, 60, 90 and 120 minutes following glucose challenge. Body weight and food intake was recorded. […] Data of Blood glucose AUC0-120 min, was analyzed using t test.

CCCCCCCCCCCCCCCC(=O)N[C@@H](CCC(=O)NCCCC[C@H](NC(=O)[C@H](C)NC(=O)[C@H](C)NC(=O)[C@H](CCC(N)=O)NC(=O)CNC(=O)[C@H](CCC(=O)O)NC(=O)[C@H](CC(C)C)NC(=O)[C@H](Cc1ccc(O)cc1)NC(=O)[C@H](CO)NC(=O)[C@H](CO)NC(=O)[C@@H](NC(=O)[C@H](CC(=O)O)NC(=O)[C@H](CO)NC(=O)[C@@H](NC(=O)[C@H](Cc1ccccc1)NC(=O)[C@@H](NC(=O)CNC(=O)[C@H](CCC(=O)O)NC(=O)[C@H](C)NC(=O)[C@@H](N)Cc1cnc[nH]1)[C@@H](C)O)[C@@H](C)O)C(C)C)C(=O)N[C@@H](CCC(=O)O)C(=O)N[C@@H](Cc1ccccc1)C(=O)N[C@H](C(=O)N[C@@H](C)C(=O)N[C@@H](Cc1c[nH]c2ccccc12)C(=O)N[C@@H](CC(C)C)C(=O)N[C@H](C(=O)N[C@@H](CCCNC(=N)N)C(=O)NCC(=O)N[C@@H](CCCNC(=N)N)C(=O)NCC(=O)O)C(C)C)[C@@H](C)CC)C(=O)O [Liraglutide, reference compound]
% Glucose Reduction (Blood Glucose AUC0-120 min): 41.5%

From patent publication US11447535B2, “GLP-1 analogues” (Sun Pharmaceutical Industries Limited, priority 2018, dated 2022)
